According to patent US5849737A, “Compositions and methods for treating pain” (priority 1995, dated 1998):

Assays:
[1] = system: neurons in Rexed lamina V; settings: decerebrate cats; high threshold mechanical and noxious thermal stimuli; cited from earlier work
[2] = Motor or other evident toxic effects after i.p. administration; settings: i.p. lidocaine 60 mg/kg; 3-OHL 15 mg/kg

CCN(CC)CC(=O)Nc1c(C)cccc1C [lidocaine]
plasma concentration with dose-related suppression of Rexed lamina V neurons [1]: 3 to 10 µg/mL | motor or other evident toxic effects [2]: No motor or other evident toxic effects
